From PubChem BioAssay AID256 (DTP/NCI, 2004) come the findings set out here.

The list is a part of this screen's results and no random one: it is rich in T/C values a quarter to a half above the control, in often repeated tests (any T/C) and in doses without a T/C. Further doses and runs are listed elsewhere. T/C: endpoint of the treated group in % of that of the vehicle group. Some entries give survivors of the animals treated and no T/C: the source files T/C as zero there, which appears to mark a toxic dose or a test without result, not a measured value. Some doses without a T/C left all or most animals alive at the check, yet need not have been tolerated: the source hardly ever lists a survival T/C far under the control, and the zero likely stands for such cases as well. Survivors were counted at the toxicity check, usually on the fifth day, unless a day is given; later deaths do not show. Schedule codes are those of the source, read here as Q, the interval in days (D) or hours (H), X, the number of doses. Some molecules as drawn cover several salts, stereoisomers or complexes of the source; a dose is that of the sample tested. Where survival is the endpoint, this PubChem deposit counts one and a half times the control or more as active, and values a quarter to a half above the control carry no call in these data; other NCI protocols may use other cut-offs.

The subject of this experiment is CD2F1 mice, L1210 leukemia ip, survival T/C. Briefly: NCI In Vivo Anticancer Drug Screen. Data for tumor model L1210 Leukemia (intraperitoneal) in CD2F1 (CDF1) mice. The settings on record: higher T/C = longer survival. Summed up:
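Read-out first: treated-group measurement over vehicle-control measurement, expressed as a ratio. Animals bore a transplanted tumor line and were dosed with compound or vehicle.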

Setting [1] is: T/C endpoint: mean survival time, dose: 400.0 mg/kg/injection, schedule: Q01DX001 (ip), vehicle: saline.
Where [2] appears, read: T/C endpoint: mean survival time, dose: 400.0 mg/kg/injection, schedule: Q01DX001 (ip), vehicle: saline with Tween-80.
The mark [3] stands for this setting: T/C endpoint: mean survival time, dose: 200.0 mg/kg/injection, schedule: Q04DX003 (ip), vehicle: saline with Tween-80.
Where [4] appears, read: T/C endpoint: mean survival time, dose: 400.0 mg/kg/injection, schedule: Q04DX003 (ip), vehicle: saline with Tween-80.
Setting [5] is: T/C endpoint: mean survival time, dose: 300.0 mg/kg/injection, schedule: Q01DX001 (ip), vehicle: saline.

Turning to `CCOC(=O)Nc1cc(NCCc2ccccc2)c(N)c(N)n1`, the survivor count reads like this: (T/C endpoint: mean survival time, dose: 200.0 mg/kg/injection, schedule: Q01DX001 (ip), vehicle: saline) 1 of 6; under setting [1], 0 of 6.

Consider `O=P1(N(CCCl)CCCl)NCCC2(O1)C1CC3CC(C1)CC2C3` (stereo not drawn), for which the survivor count (T/C endpoint: mean survival time, dose: 250.0 mg/kg/injection, schedule: Q01DX001 (ip), vehicle: distilled water + Tween-80) is recorded as 6 of 6.

For the compound `COC1C(O)C(C)OC(OC2CC(O)C3(C)C(CCC4C3CCC3(C)C(C5=CC(=O)OC5)CCC43O)C2)C1O` (stereo not drawn) (tested in a mixture with another compound), the survivor count was 0 of 6 (T/C endpoint: mean survival time, dose: 100.0 mg/kg/injection, schedule: Q01DX001 (ip), vehicle: saline sonified) and 0 of 6 (T/C endpoint: mean survival time, dose: 200.0 mg/kg/injection, schedule: Q01DX001 (ip), vehicle: saline sonified).

Take `O=C(O)CC(=O)O.[NH-]C1CCCCC1C1CCCCC1[NH-].[Pt+2]` (stereo not drawn): the T/C (T/C endpoint: mean survival time, dose: 25.0 mg/kg/injection, schedule: Q04DX003 (ip), vehicle: distilled water + Tween-80) is 133 % of control.

Turning to `CC(=O)Oc1cc(-c2ccccc2)c(OC(C)=O)c(N=[N+]=[N-])c1C`, the survivor count under setting [2] is listed as 0 of 3.

Consider `O=C(CCCl)c1ccc2c(c1)OCO2`, for which, under setting [1], the survivor count is recorded as 1 of 6.

With `COc1cc(OC)c(/C=C/c2c3ccccc3cc[n+]2C)c(OC)c1`, the survivor count reads like this: (T/C endpoint: mean survival time, dose: 12.5 mg/kg/injection, schedule: Q01DX009 (ip), vehicle: saline with Tween-80) 0 of 6; (T/C endpoint: mean survival time, dose: 25.0 mg/kg/injection, schedule: Q01DX009 (ip), vehicle: saline with Tween-80) 0 of 6; (T/C endpoint: mean survival time, dose: 50.0 mg/kg/injection, schedule: Q01DX009 (ip), vehicle: saline with Tween-80) 0 of 6.

In the case of `CC(C)(C)C(=O)CC(=O)C(C)(C)C.CC(C)(C)C(=O)CC(=O)C(C)(C)C.[Cu]`, under “T/C endpoint: mean survival time, dose: 38.0 mg/kg/injection, schedule: Q01DX009 (ip), vehicle: saline with Tween-80”, the survivor count was 1 of 6.

As for `COC1=CC=C2[C@@H]3Cc4ccc(OC)c5c4[C@]2(CCN3CCCl)C1O5` (stereo partly drawn), the survivor count runs as follows: (T/C endpoint: mean survival time, dose: 200.0 mg/kg/injection, schedule: Q04DX003 (ip), vehicle: DMSO) 1 of 6; (T/C endpoint: mean survival time, dose: 400.0 mg/kg/injection, schedule: Q04DX003 (ip), vehicle: DMSO) 0 of 6.

As for `CCOC(=O)Nc1cc(NCCCCc2ccccc2)c(N)c(N)n1`, under setting [2], the survivor count is on record as 0 of 6.

In the case of `O=C(O)C1CCCCC1C(=O)O.[NH-]C1CCC1.[NH2-].[Pt+2]` (stereo not drawn), the survivor count (T/C endpoint: median survival time, dose: 100.0 mg/kg/injection, schedule: Q04DX003 (ip), vehicle: distilled water + Tween-80) is 2 of 6 and the survivor count (T/C endpoint: median survival time, dose: 200.0 mg/kg/injection, schedule: Q04DX003 (ip), vehicle: distilled water + Tween-80) was 0 of 6.

For the compound `O=C1CC[C@@H]2CCCC[C@@H]2C1`, the survivor count (T/C endpoint: mean survival time, dose: 100.0 mg/kg/injection, schedule: Q04DX003 (ip), vehicle: saline with Tween-80) was 2 of 6 and the survivor count under setting [3] is recorded as 1 of 6.

On to `[Cl][Hg][Cl]`, for which, under “T/C endpoint: median survival time, dose: 6.25 mg/kg/injection, schedule: Q01DX009 (ip), vehicle: saline”, the survivor count was 1 of 6.

With `CCCCCC(=O)N1CCCC1`, the survivor count under setting [4] is reported as 1 of 6.

Take `Nc1nc(NNC(=O)c2ccccc2)c2nonc2n1`: the survivor count (T/C endpoint: mean survival time, dose: 100.0 mg/kg/injection, schedule: Q01DX005 (ip), vehicle: other) is 3 of 3.

In the case of `CCCCCC(C)C1(CCCC)NC(C)(C)CC(C)O1` (stereo not drawn), under “T/C endpoint: mean survival time, dose: 400.0 mg/kg/injection, schedule: Q04DX003 (ip), vehicle: saline”, the survivor count is on record as 0 of 6.

Regarding `CS(=O)(=O)OCCN(CCOS(C)(=O)=O)c1ccc(N=O)c(Cl)c1`, under setting [3], the T/C was 133 % of control. Besides, the survivor count under setting [4] is given as 2 of 6.

On to `CCC(Cc1ccccc1Br)C1=NC(C)(C)CO1` (stereo not drawn), for which the survivor count (T/C endpoint: mean survival time, dose: 400.0 mg/kg/injection, schedule: Q01DX001 (ip), vehicle: acetone) is 2 of 6.

Regarding `CC(C)(C)c1ccc(C(=O)C2CC2)cc1`, the survivor count under setting [4] is recorded as 6 of 6.

With `Cc1ccc2c(c1)nc1c3ccccc3nnn21`, the survivor count under setting [5] is recorded as 3 of 6.

With `COC/C=N/N(C)C`, under setting [5], the survivor count was 2 of 6.

`O/N=C/C1CCCC[N-]1.O/N=C/C1CCCC[N-]1.O/N=C/C1CCCC[N-]1.[Cu]` (stereo not drawn): for the setting “T/C endpoint: median survival time, dose: 6.0 mg/kg/injection, schedule: Q03HX024 (ip), vehicle: saline”, the T/C is 141 % of control. In addition, the survivor count (T/C endpoint: median survival time, dose: 10.0 mg/kg/injection, schedule: Q03HX024 (ip), vehicle: saline) is 4 of 10.

For `CCN(CC)CCNc1ccc(CO)c2sc3ccccc3c(=O)c12`, the T/C by setting is: (T/C endpoint: mean survival time, dose: 16.0 mg/kg/injection, schedule: Q01DX009 (ip), vehicle: saline) 129 % of control; (T/C endpoint: mean survival time, dose: 16.0 mg/kg/injection, schedule: Q01DX009 (sc), vehicle: saline) 125 % of control; (T/C endpoint: mean survival time, dose: 32.0 mg/kg/injection, schedule: Q01DX009 (ip), vehicle: saline) 146 % of control; (T/C endpoint: mean survival time, dose: 32.0 mg/kg/injection, schedule: Q01DX009 (sc), vehicle: saline) 140 % of control; (T/C endpoint: mean survival time, dose: 32.0 mg/kg/injection, schedule: Q03HX008 (ip), vehicle: saline) 134 % of control; (T/C endpoint: mean survival time, dose: 64.0 mg/kg/injection, schedule: Q04DX003 (ip), vehicle: saline) 125 % of control. For the same compound, the T/C runs as follows: (T/C endpoint: mean survival time, dose: 128.0 mg/kg/injection, schedule: Q01DX009 (oral), vehicle: saline) 148 % of control; (T/C endpoint: mean survival time, dose: 128.0 mg/kg/injection, schedule: Q04DX003 (ip), vehicle: saline) 138 % of control; (T/C endpoint: mean survival time, dose: 256.0 mg/kg/injection, schedule: Q08DX002 (ip), vehicle: saline) 134 % of control; (T/C endpoint: mean survival time, dose: 264.0 mg/kg/injection, schedule: Q01DX001 (ip), vehicle: acetone) 137 % of control; (T/C endpoint: mean survival time, dose: 512.0 mg/kg/injection, schedule: Q01DX001 (sc), vehicle: saline) 135 % of control; (T/C endpoint: mean survival time, dose: 1024.0 mg/kg/injection, schedule: Q01DX001 (oral), vehicle: saline) 126 % of control. Further, the T/C (T/C endpoint: median survival time, dose: 20.0 mg/kg/injection, schedule: Q01DX009 (ip), vehicle: water) was 133 % of control and the T/C (T/C endpoint: median survival time, dose: 80.0 mg/kg/injection, schedule: Q01DX009 (ip), vehicle: water) is 141 % of control. Also, the survivor count by setting is: (T/C endpoint: mean survival time, dose: 180.0 mg/kg/injection, schedule: Q01DX009 (ip), vehicle: acetone) 4 of 6; (T/C endpoint: mean survival time, dose: 256.0 mg/kg/injection, schedule: Q01DX009 (ip), vehicle: saline) 3 of 10; (T/C endpoint: mean survival time, dose: 256.0 mg/kg/injection, schedule: Q01DX009 (sc), vehicle: saline) 0 of 10; (T/C endpoint: mean survival time, dose: 256.0 mg/kg/injection, schedule: Q04DX003 (ip), vehicle: saline) 6 of 10; (T/C endpoint: mean survival time, dose: 264.0 mg/kg/injection, schedule: Q01DX009 (ip), vehicle: acetone) 1 of 6; (T/C endpoint: mean survival time, dose: 400.0 mg/kg/injection, schedule: Q01DX009 (ip), vehicle: acetone) 0 of 6. Also, the survivor count (T/C endpoint: mean survival time, dose: 512.0 mg/kg/injection, schedule: Q01DX001 (ip), vehicle: saline) was 0 of 10; the survivor count (T/C endpoint: mean survival time, dose: 512.0 mg/kg/injection, schedule: Q01DX009 (oral), vehicle: saline) is given as 3 of 10; the survivor count (T/C endpoint: mean survival time, dose: 512.0 mg/kg/injection, schedule: Q04DX003 (ip), vehicle: saline) is on record as 0 of 10; the survivor count (T/C endpoint: mean survival time, dose: 512.0 mg/kg/injection, schedule: Q08DX002 (ip), vehicle: saline) was 0 of 10; the survivor count (T/C endpoint: mean survival time, dose: 1024.0 mg/kg/injection, schedule: Q01DX009 (oral), vehicle: saline) is given as 0 of 10; the survivor count (T/C endpoint: mean survival time, dose: 2048.0 mg/kg/injection, schedule: Q01DX001 (oral), vehicle: saline) is 6 of 10.

Regarding `CC#CCOCC(O)CO` (stereo not drawn), for the setting “T/C endpoint: mean survival time, dose: 400.0 mg/kg/injection, schedule: Q01DX009 (ip), vehicle: water”, the survivor count is reported as 0 of 6.

As for `c1ccc2[s+]cccc2c1`, the survivor count reads like this: under setting [3], 2 of 6; under setting [4], 0 of 6.

For the compound `CCOCCNCc1ccc(Cl)cc1Cl`, the survivor count under setting [4] is given as 0 of 6.

`CCOC(=O)CN1C(=O)C(Cl)=C(Cl)C1=O`: the survivor count is on record as 0 of 6 (T/C endpoint: mean survival time, dose: 25.0 mg/kg/injection, schedule: Q04DX003 (ip), vehicle: saline with Tween-80) and 0 of 6 (T/C endpoint: mean survival time, dose: 50.0 mg/kg/injection, schedule: Q04DX003 (ip), vehicle: saline with Tween-80).
